Experimental data published in patent US20040038344A1.
These are yes or no findings as the source states them, for the method shown. In cells and extracts the contact can be indirect. Some results given as binding are weak or reduced against the parent protein; the word gives no strength.

By UniProt entry, the sequences of proteins in these tests, tags left out. Residues count along the entry.
UniProt P16144, residues 28-1822: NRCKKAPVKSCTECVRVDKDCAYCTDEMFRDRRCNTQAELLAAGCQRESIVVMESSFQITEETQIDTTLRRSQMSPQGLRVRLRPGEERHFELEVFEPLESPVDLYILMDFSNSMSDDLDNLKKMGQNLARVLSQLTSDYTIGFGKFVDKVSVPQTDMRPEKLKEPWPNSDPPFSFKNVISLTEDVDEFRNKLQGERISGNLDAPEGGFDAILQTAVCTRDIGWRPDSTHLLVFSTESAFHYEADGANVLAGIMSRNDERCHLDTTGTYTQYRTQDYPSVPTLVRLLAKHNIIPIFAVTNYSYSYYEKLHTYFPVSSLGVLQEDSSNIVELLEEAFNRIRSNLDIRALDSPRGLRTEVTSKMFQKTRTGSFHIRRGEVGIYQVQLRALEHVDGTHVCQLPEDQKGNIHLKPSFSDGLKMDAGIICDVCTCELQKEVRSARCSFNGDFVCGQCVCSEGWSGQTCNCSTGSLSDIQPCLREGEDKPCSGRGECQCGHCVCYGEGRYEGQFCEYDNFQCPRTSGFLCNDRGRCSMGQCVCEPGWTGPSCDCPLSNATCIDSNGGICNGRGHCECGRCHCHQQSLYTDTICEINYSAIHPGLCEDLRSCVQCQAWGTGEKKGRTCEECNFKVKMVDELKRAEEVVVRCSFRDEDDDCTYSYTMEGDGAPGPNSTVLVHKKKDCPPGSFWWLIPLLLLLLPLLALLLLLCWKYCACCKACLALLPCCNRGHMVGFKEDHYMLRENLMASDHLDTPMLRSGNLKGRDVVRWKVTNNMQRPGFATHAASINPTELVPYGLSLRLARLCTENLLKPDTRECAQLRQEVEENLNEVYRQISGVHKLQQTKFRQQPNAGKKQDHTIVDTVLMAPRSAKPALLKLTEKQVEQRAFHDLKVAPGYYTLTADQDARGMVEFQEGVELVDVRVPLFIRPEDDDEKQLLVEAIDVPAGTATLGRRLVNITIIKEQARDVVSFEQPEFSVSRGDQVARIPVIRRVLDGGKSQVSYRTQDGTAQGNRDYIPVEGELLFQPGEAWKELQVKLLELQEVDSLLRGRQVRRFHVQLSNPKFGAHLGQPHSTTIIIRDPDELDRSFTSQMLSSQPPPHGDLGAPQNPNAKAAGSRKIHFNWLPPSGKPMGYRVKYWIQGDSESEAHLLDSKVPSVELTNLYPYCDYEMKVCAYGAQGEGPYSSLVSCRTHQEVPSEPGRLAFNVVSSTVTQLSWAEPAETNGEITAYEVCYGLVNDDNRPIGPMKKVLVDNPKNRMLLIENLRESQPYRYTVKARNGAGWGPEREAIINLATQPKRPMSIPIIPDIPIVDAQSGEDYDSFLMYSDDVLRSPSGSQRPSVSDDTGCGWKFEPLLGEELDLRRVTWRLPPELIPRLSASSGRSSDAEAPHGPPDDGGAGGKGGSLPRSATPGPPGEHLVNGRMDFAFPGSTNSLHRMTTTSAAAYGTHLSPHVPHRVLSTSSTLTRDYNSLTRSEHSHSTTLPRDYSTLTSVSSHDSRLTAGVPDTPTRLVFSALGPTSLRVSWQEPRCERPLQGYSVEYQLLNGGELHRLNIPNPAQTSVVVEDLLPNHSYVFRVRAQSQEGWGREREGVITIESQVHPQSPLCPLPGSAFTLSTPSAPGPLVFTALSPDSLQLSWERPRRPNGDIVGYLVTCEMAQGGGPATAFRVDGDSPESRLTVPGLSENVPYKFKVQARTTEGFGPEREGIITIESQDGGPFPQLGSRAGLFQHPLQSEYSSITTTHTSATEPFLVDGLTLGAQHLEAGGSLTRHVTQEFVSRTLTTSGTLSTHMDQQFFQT

How the values were obtained:
beta4 integrin (human) [1] = target: beta4 integrin (human) (UniProt P16144); assay: co-immunoprecipitation from surface-biotinylated cells
beta4 integrin (human) [2] = target: beta4 integrin (human) (UniProt P16144); assay: co-immunoprecipitation (FIG. 3), as restated in the discussion
beta4 integrin (human) [3] = target: beta4 integrin (human) (UniProt P16144); assay: co-immunoprecipitation with antibody A9; 'alpha4' is read as beta4
beta4 integrin (human) [4] = target: beta4 integrin (human) (UniProt P16144); assay: co-immunoprecipitation from surface-biotinylated HaCaT cells with anti-beta4 antibodies

Measured: binding

B1: alpha6p integrin (70-kDa N-terminally truncated variant of human alpha6 integrin) (receptor)
chain: RVNSLPEVLPILNSDEPKTAHIDVHFLKEGCGDDNVCNSNLKLEYKFCTREGNQDKFSYLPIQKGVPELVLKDQKDIALEITVTNSPSNPRNPTKDGDDAHEAKLIATFPDTLTYSAYRELRAFPEKQLSCVANQNGSQADCELGNPFKRNSNVTFYLVLSTTEVTFDTPYLDINLKLETTSNQDNLAPITAKAKVVIELLLSVSGVAKPSQVYFGGTVVGEQAMKSEDEVGSLIEYEFRVINLGKPLTNLGTATLNIQWPKEISNGKWLLYLVKVESKGLEKVTCEPQKEINSLNLTESHNSRKKREITEKQIDDNRKFSLFAERKYQTLNCSVNVNCVNIRCPLRGLDSKASLILRSRLWNSTFLEEYSKLNYLDILMRAFIDVTAAAENIRLPNAGTQVRVTVFPSKTVAQYSGVPWWIILVAILAGILMLALLVFILWKCGFFKRNKKDHYDATYHKAEIHAQPSDKERLTSDA
binds: beta4 integrin (human) [1] | beta4 integrin (human) [2] | beta4 integrin (human) [3] | beta4 integrin (human) [4]
